In PubChem BioAssay AID192 (DTP/NCI, 2004):
The list is a part of this screen's results and no random one: it is rich in T/C values a quarter to a half above the control, in often repeated tests (any T/C) and in doses without a T/C. Further doses and runs are listed elsewhere. T/C gives the treated animals as a percentage of the vehicle group. Some doses have a count of surviving animals in place of a T/C: the source holds a T/C of zero for them, seemingly a mark for toxic or unscored doses. Some doses without a T/C left all or most animals alive at the check, yet need not have been tolerated: the source hardly ever lists a survival T/C far under the control, and the zero likely stands for such cases as well. Counts of survivors are from the toxicity check (mostly the fifth day) where no day follows; animals may have died later. Schedule codes are those of the source, taken here to give the interval after Q, in days (D) or hours (H), and the number of doses after X. Some entries hold several experiments; the results are listed from low to high. Where survival is the endpoint, the PubChem record calls one and a half times the control and up active, and a quarter to a half above the control has no call in these data; cut-offs in other NCI protocols can differ.

Tested on: BDF1 mice, B16 melanoma ip, median survival T/C
Experiment: NCI In Vivo Anticancer Drug Screen. Data for tumor model B16 Melanoma (intraperitoneal) in B6D2F1 (BDF1) mice
Conditions: T/C endpoint: median survival time, higher T/C = longer survival
Description: The antitumor activity of compounds was measured in mice bearing transplantable tumors. Survival or tumor size were measured and the results are expressed as the measurement made in the treated group (T) divided by the measurement made in the vehicle treated control group (C). The tumor model used in this assay is B16 Melanoma (intraperitoneal) in B6D2F1 (BDF1) mice

[1] = dose: 100.0 mg/kg/injection, schedule: Q01DX009 (ip), vehicle: Klucel (hydroxypropylcellulose) (HPC)
[2] = dose: 200.0 mg/kg/injection, schedule: Q01DX009 (ip), vehicle: Klucel (hydroxypropylcellulose) (HPC)
[3] = dose: 12.5 mg/kg/injection, schedule: Q01DX009 (ip), vehicle: saline with Tween-80
[4] = dose: 25.0 mg/kg/injection, schedule: Q01DX009 (ip), vehicle: saline with Tween-80
[5] = dose: 400.0 mg/kg/injection, schedule: Q01DX009 (ip), vehicle: saline with Tween-80
[6] = dose: 200.0 mg/kg/injection, schedule: Q01DX009 (ip), vehicle: saline
[7] = dose: 400.0 mg/kg/injection, schedule: Q01DX009 (ip), vehicle: saline
[8] = dose: 200.0 mg/kg/injection, schedule: Q01DX009 (ip), vehicle: saline with Tween-80
[9] = dose: 50.0 mg/kg/injection, schedule: Q01DX009 (ip), vehicle: saline with Tween-80
[10] = dose: 100.0 mg/kg/injection, schedule: Q01DX009 (ip), vehicle: saline with Tween-80
[11] = dose: 25.0 mg/kg/injection, schedule: Q01DX009 (ip), vehicle: Klucel (hydroxypropylcellulose) (HPC)
[12] = dose: 50.0 mg/kg/injection, schedule: Q01DX009 (ip), vehicle: Klucel (hydroxypropylcellulose) (HPC)

## C/C(=N\[N+](C)(C)C)c1ccc(Br)cc1
dose: 150.0 mg/kg/injection, schedule: Q01DX009 (ip), vehicle: saline
  survivor count: 6 of 10
dose: 225.0 mg/kg/injection, schedule: Q01DX009 (ip), vehicle: saline
  survivor count: 0 of 10
dose: 335.0 mg/kg/injection, schedule: Q01DX009 (ip), vehicle: saline
  survivor count: 1 of 10

## O=C(Nc1ccccc1O)/C(Cl)=C/Cl
[1]
  survivor count: 7 of 10

## C=CCOc1ccccc1Cl
dose: 100.0 mg/kg/injection, schedule: Q04DX003 (ip), vehicle: Klucel (hydroxypropylcellulose) (HPC)
  T/C: 125 % of control

## CC(=O)OCC1OC(S[As](C)C)C(OC(C)=O)C(OC(C)=O)C1OC(C)=O (stereo not drawn)
[2]
  survivor count: 10 of 10

## CCCCCC[C@H]([C@H](C)O)n1cnc2c(N)ncnc21
[1]
  survivor count: 10 of 10
[2]
  survivor count: 0 of 10 and 9 of 10

## Cc1c(CNc2ccc(C(=O)NC(CC(=O)O)C(=O)O)cc2)ccc2nc(N)nc(N)c12 (stereo not drawn)
dose: 0.39 mg/kg/injection, schedule: Q01DX009 (ip), vehicle: saline
  survivor count: 10 of 10
dose: 0.78 mg/kg/injection, schedule: Q01DX009 (ip), vehicle: saline
  survivor count: 8 of 10 and 10 of 10
dose: 1.56 mg/kg/injection, schedule: Q01DX009 (ip), vehicle: saline with Tween-80
  survivor count: 10 of 10
dose: 1.56 mg/kg/injection, schedule: Q01DX009 (ip), vehicle: saline
  survivor count: 7 of 10 and 8 of 10
dose: 3.12 mg/kg/injection, schedule: Q01DX009 (ip), vehicle: saline with Tween-80
  survivor count: 8 of 10
dose: 3.12 mg/kg/injection, schedule: Q01DX009 (ip), vehicle: saline
  survivor count: 6 of 10
dose: 6.25 mg/kg/injection, schedule: Q01DX009 (ip), vehicle: saline with Tween-80
  survivor count: 9 of 10
dose: 6.25 mg/kg/injection, schedule: Q01DX009 (ip), vehicle: saline
  survivor count: 4 of 10
[3]
  survivor count: 10 of 10
dose: 12.5 mg/kg/injection, schedule: Q01DX009 (ip), vehicle: saline
  survivor count: 0 of 10
[4]
  survivor count: 9 of 10
dose: 25.0 mg/kg/injection, schedule: Q01DX009 (ip), vehicle: saline
  survivor count: 5 of 10

## O=C(O)c1ccccc1C(=O)Nc1ccc(Cl)cc1
[5]
  survivor count: 9 of 10

## ClN=C(c1ccccc1)c1ccccc1
[1]
  survivor count: 7 of 10

## C=C1C(=O)O[C@@H]2C[C@@H](C)[C@@H]3C=CC(=O)[C@@]3(C)[C@@H](O)[C@H]12
dose: 16.0 mg/kg/injection, schedule: Q01DX009 (ip), vehicle: saline + alcohol
  survivor count: 5 of 10
dose: 16.0 mg/kg/injection, schedule: Q01DX009 (ip), vehicle: saline
  survivor count: 4 of 10

## COC1=C(N)C(=O)c2nc(-c3nc(C(=O)O)c(C)c(-c4ccc(OC)c(OC)c4O)c3N)ccc2C1=O
dose: 0.8 mg/kg/injection, schedule: Q01DX009 (ip), vehicle: saline
  survivor count: 10 of 10
dose: 400.0 micrograms/kg/injection, schedule: Q01DX009 (ip), vehicle: saline
  survivor count: 10 of 10
dose: 800.0 micrograms/kg/injection, schedule: Q01DX009 (ip), vehicle: saline
  survivor count: 10 of 10

## COc1cc(CN(C)C2CCCCC2)cc(OC)c1OC
[6]
  survivor count: 0 of 10
[7]
  survivor count: 0 of 10

## CC1OC(OC2CC(O)(C(=O)CO)Cc3c(O)c4c(c(O)c32)C(=O)c2ccccc2C4=O)CC(N)C1O (stereo not drawn)
dose: 0.19 mg/kg/injection, schedule: Q01DX001 (ip), vehicle: water
  T/C: 130 % of control
dose: 0.38 mg/kg/injection, schedule: Q01DX001 (ip), vehicle: water, evaluated on day 50
  T/C: 114 % of control
dose: 0.38 mg/kg/injection, schedule: Q01DX001 (ip), vehicle: water, evaluated on day 60
  T/C: 164, 166, 173 % of control
dose: 0.75 mg/kg/injection, schedule: Q01DX001 (ip), vehicle: water, evaluated on day 50
  T/C: 110 % of control
dose: 0.75 mg/kg/injection, schedule: Q01DX001 (ip), vehicle: water, evaluated on day 60
  T/C: 141, 195, 209 % of control
dose: 1.5 mg/kg/injection, schedule: Q01DX001 (ip), vehicle: water, evaluated on day 50
  T/C: 105 % of control
dose: 1.5 mg/kg/injection, schedule: Q01DX001 (ip), vehicle: water, evaluated on day 60
  T/C: 250 and 268 % of control
dose: 1.5 mg/kg/injection, schedule: Q01DX001 (ip), vehicle: water
  survivor count: 10 of 10
dose: 3.0 mg/kg/injection, schedule: Q01DX001 (ip), vehicle: water
  survivor count: 6 of 10
dose: 6.0 mg/kg/injection, schedule: Q01DX001 (ip), vehicle: water
  survivor count: 1 of 10, 9 of 10, 10 of 10
dose: 216.0 micrograms/kg/injection, schedule: Q01DX004 (ip), vehicle: other
  T/C: 133 % of control
dose: 216.0 micrograms/kg/injection, schedule: Q04DX003 (ip), vehicle: water
  T/C: 149 % of control
dose: 360.0 micrograms/kg/injection, schedule: Q01DX004 (ip), vehicle: other
  T/C: 126 % of control
dose: 1000.0 micrograms/kg/injection, schedule: Q01DX004 (ip), vehicle: other
  survivor count: 10 of 10

## C#CC(C)OCC1CNC(=S)O1 (stereo not drawn)
[8]
  survivor count: 10 of 10

## COc1cc(/C=C/c2nc3ccccc3nc2/C=C/c2cc(OC)c(OC)c(OC)c2)cc(OC)c1OC
[4]
  survivor count: 10 of 10
[9]
  survivor count: 10 of 10
[10]
  survivor count: 10 of 10
[8]
  survivor count: 9 of 10
[5]
  survivor count: 8 of 10

## Cn1c(N)c(C(=O)/C=C/c2ccccc2)c(=O)n(C)c1=O
dose: 6.25 mg/kg/injection, schedule: Q01DX009 (ip), vehicle: Klucel (hydroxypropylcellulose) (HPC)
  survivor count: 9 of 10
dose: 12.5 mg/kg/injection, schedule: Q01DX009 (ip), vehicle: Klucel (hydroxypropylcellulose) (HPC)
  survivor count: 10 of 10
[11]
  survivor count: 10 of 10
[1]
  survivor count: 9 of 10
[2]
  survivor count: 4 of 10

## ClCC[N+]12CC[N+](CCCl)(CC1)C2 (tested in a mixture with another compound)
[7]
  survivor count: 10 of 10

## CC1(C)N=C(N)N=C(N)N1c1ccc(OCCCCNC(=O)c2ccc(S(=O)(=O)F)cc2)c(Cl)c1
[8]
  survivor count: 1 of 10

## S=P(NCCNP(=S)(N1CC1)N1CC1)(N1CC1)N1CC1
[12]
  survivor count: 10 of 10
[1]
  survivor count: 10 of 10

## CC(C)Nc1ncnc2[nH]ncc12
dose: 16.0 mg/kg/injection, schedule: Q01DX009 (ip), vehicle: Klucel (hydroxypropylcellulose) (HPC)
  survivor count: 10 of 10
dose: 32.0 mg/kg/injection, schedule: Q01DX009 (ip), vehicle: Klucel (hydroxypropylcellulose) (HPC)
  survivor count: 9 of 10
dose: 64.0 mg/kg/injection, schedule: Q01DX009 (ip), vehicle: Klucel (hydroxypropylcellulose) (HPC)
  survivor count: 7 of 10

## CCOCCCN
[6]
  survivor count: 6 of 10

## COc1ccc2c(c1OC(C)=O)-c1cc(OC(C)=O)cc3c1C(C2)N(C(=O)CN(CCCl)CCCl)CC3 (stereo not drawn)
dose: 12.5 mg/kg/injection, schedule: Q04DX003 (ip), vehicle: DMSO
  T/C: 140 % of control
dose: 50.0 mg/kg/injection, schedule: Q04DX003 (ip), vehicle: DMSO
  survivor count: 10 of 10
dose: 100.0 mg/kg/injection, schedule: Q04DX003 (ip), vehicle: DMSO
  survivor count: 7 of 10

## CC(=O)OC1CCC2(C)C(CCC3C2C(=O)C(OC(C)=O)C2(C)C3CC3OC4(CCC(C)CO4)C(C)C32)C1 (stereo not drawn)
[3]
  survivor count: 10 of 10
[4]
  survivor count: 10 of 10
[9]
  survivor count: 10 of 10
[10]
  survivor count: 10 of 10

## CC(=O)OCCCC/C(=C/c1cc2ccccc2c2ccccc12)[N+](=O)[O-]
[11]
  survivor count: 10 of 10
[12]
  survivor count: 10 of 10
[1]
  survivor count: 10 of 10
[2]
  survivor count: 4 of 10
